Data from PubChem BioAssay AID2685 (National Center for Advancing Translational Sciences (NCATS), 2010).
Hit rate of the full screen: of about 320,000 compounds, about 2,100 (0.66%) were called active. Calls follow the shape of the dose curve; as a rule, active = well fitted inhibition curve with a large enough effect in the signal ratio, with a control signal flat (not every such curve was filed as active); inconclusive = small, poorly fitted or top-dose-only effect, or effect the other way, or a change in a side signal; inactive = flat fitted curve, though single readings scatter; the % refers to the signal ratio. The inconclusive results got no clear call from the source. Where the call is inconclusive, the potency comes from a doubtful curve fit.

Assay: qHTS Assay for Lipid Storage Modulators in Drosophila S3 Cells
Settings: BODIPY lipid droplet fluorescence, 18-24 h, cells fed with added oleic acid; lipid storage change, negative = inhibition: at 46.1 µM (top of the series) unless noted
Summary of the method: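 Laser-scanning cytometry quantifies lipid droplet accumulation (500–530 nm total intensity; droplet/cell object ratio) in oleic acid-fed (400 uM added) Drosophila S3 cells treated with a concentration series. 20 uM Triacsin C defined 100% inhibition.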
% is scaled to controls: 0 for no effect and ±100 for the full control effect; potency is read from the fitted curve at half-maximal effect.

Structure (SMILES) | lipid storage change, negative = inhibition | Potency
O=C1CN=C(c2ccccc2)c2cc(Br)ccc2N1Cc1cc(=O)n2ccccc2n1 | inconclusive: 23.9% | 
CCCCNS(=O)(=O)c1ccc(OCC(=O)N2CCN(Cc3ccc4c(c3)OCO4)CC2)cc1 |  | inconclusive: 0.92 µM [falling, single point]
O=[N+]([O-])c1cccc(NP(=O)(Oc2ccccc2)Oc2ccccc2)c1 | inconclusive: 13.7% | 
CN(C(=O)Cn1c(=O)oc2cc(S(=O)(=O)N3CCCC3)ccc21)C1CCCCC1 |  | inconclusive: 6.51 µM [activator, single point]
COCCN1C(=O)NC(=O)/C(=C\c2ccc(Br)cc2)C1=O | inconclusive: -40.3% | 
Cn1c(=O)oc2cc(S(=O)(=O)NC3CCCc4ccccc43)ccc21 (stereo not drawn) |  | inconclusive: 14.6 µM [activator, single point]
Cc1cnc[nH]1 | inconclusive: -5.12% | 
CC(=NCCCn1ccnc1)c1c(O)n(C)c(=O)n(C)c1=O | inconclusive: 32.2% | 
C/C=C(\C)C(=O)N[C@@H](c1ccccc1)[C@@H](O)C(=O)O[C@H]1C[C@@]2(O)[C@@H](OC(=O)c3ccccc3)C3[C@](C)(C(=O)[C@H](OC(C)=O)C(=C1C)C2(C)C)[C@@H](O)C[C@H]1OC[C@@]31OC(C)=O (stereo partly drawn) |  | inconclusive: 23.1 µM [falling, single point]
CN1CCC(N(C)c2ccc(C(N)=O)cc2[N+](=O)[O-])CC1 |  | inconclusive: 0.092 µM [falling, full curve, poor fit]
CCOC(=O)c1c(/N=C/c2c(O)n(-c3cccc(C)c3)c(=O)[nH]c2=O)sc2c1CCCC2 | inconclusive: -10.8% | 
Oc1ccc(C2NCc3ccccc3-n3cccc32)cc1Cl (stereo not drawn) | inconclusive: -9.69% | 
O=C1CC(N2CCC(n3c(=O)[nH]c4ccccc43)CC2)C(=O)N1Cc1ccccc1 (stereo not drawn) |  | inconclusive: 0.0326 µM [activator, full curve, poor fit]
O=C(O)C1C2CCC(O2)C1C(=O)Nc1cccc(Br)c1 (stereo not drawn) | inconclusive: 31% | 
COc1cccc(C(=O)N2CCC3(CC2)OCCO3)c1 | inconclusive: -15.8% | 
CCc1c(C)nc(N)nc1N1N=C1SCC#N | inconclusive: 10% | 
CCCNC(=O)N1[C@H]2CC[C@@H]1C(C(=O)OC)=C(c1ccc(F)cc1F)C2 |  | inconclusive: 4.11 µM [activator, full curve]
CCOC(=O)C(O)(c1ccc(NC(=S)NC(=O)c2ccc(Cl)cc2Cl)c(C)c1)C(F)(F)F (stereo not drawn) |  | inconclusive: 16.4 µM [falling, single point]
COc1ccc(C2N3CC(C)(C)CN23)cc1 (stereo not drawn) | inconclusive: 22.1% | 

Structure (SMILES) | lipid storage change, negative = inhibition | Potency
O=C(CN1CC=C(c2ccccc2)CC1)NC(=O)NCc1ccco1 |  | inconclusive: 1.03 µM [activator, full curve, poor fit]
O=P(C(c1ccc2c(c1)OCO2)N1CCOCC1)(N1CCOCC1)N1CCOCC1 (stereo not drawn) | inconclusive: 13.7% | 
COCc1c(CN)cnc(C)c1N | inconclusive: -1.33% | 
CCN1CCN(c2ccc(N)cc2)CC1 | inconclusive: -17.3% | 
CC(=O)Nc1ccc(OC(=O)N(C)C)cc1 |  | inconclusive: 0.116 µM [falling, full curve, poor fit]
O=C1CN(C(=O)CN2CCCCC2)C(c2ccccc2)c2cc(Br)ccc2N1 (stereo not drawn) |  | inconclusive: 8.2 µM [falling, partial curve, poor fit]
c1ccc2c(c1)[nH]c1cnccc12 | inconclusive: -2.7% | 
COC(=O)C1=C(c2ccc(F)cc2OCc2ccccc2)C[C@@H]2CC[C@H]1N2C(=O)NCc1ccc(C(C)(C)C)cc1 | inconclusive: -1.19% | 
COCCNC(=O)N1[C@H]2CC[C@@H]1C(C(=O)OC)=C(c1ccc(OC(F)(F)F)cc1)C2 |  | inconclusive: 0.0046 µM [cytotoxic, full curve, poor fit]
CC(C)(C)c1ccc(C(=O)C2CCCN(Cc3ccon3)C2)cc1 (stereo not drawn) | inconclusive: -29.3% | 
Cc1ccsc1CNCCc1ccc(F)cc1 | inconclusive: 36.3% | 
COc1cc(C(=O)Nc2ccc(Br)cc2C(=O)c2ccccc2Cl)cc(OC)c1OC |  | inconclusive: 16.4 µM [activator, single point]
CN(C)C(=O)Oc1ccc2ccccc2c1Cl | inconclusive: -185% | 
CNC(=S)NC1CC2CCCC(C1)N2CC(C)C (stereo not drawn) | inconclusive: 19.3% | 
O=S1(=O)N(CCN2CC=C(c3c[nH]c4cc(F)ccc34)CC2)c2cccc3c2N1CCC3 | inconclusive: -16.9% | 
CN1C(=O)C(c2ccc([N+](=O)[O-])cc2[N+](=O)[O-])C(=O)N(C)C1=O | inconclusive: 9.07% | 
O=Cc1cn(Cc2ccc(F)cc2)c2ccccc12 | inconclusive: 1.64% | 
O=c1cccc2n1CC1CC2CN(Cc2cccc(Cl)c2Cl)C1 (stereo not drawn) | inconclusive: -23.1% | 
CC(C)(C)C(=O)Nc1ccc(S(=O)(=O)N2CC3CC(C2)c2cccc(=O)n2C3)cc1 (stereo not drawn) | inconclusive: 3.13% | 

Another view of three compounds above.
COc1ccc(C2N3CC(C)(C)CN23)cc1 (stereo not drawn)
  lipid storage change, negative = inhibition: inconclusive: 22.1%
O=C(CN1CC=C(c2ccccc2)CC1)NC(=O)NCc1ccco1
  Potency: inconclusive: 1.03 µM [activator, full curve, poor fit]
O=P(C(c1ccc2c(c1)OCO2)N1CCOCC1)(N1CCOCC1)N1CCOCC1 (stereo not drawn)
  lipid storage change, negative = inhibition: inconclusive: 13.7%
